Patent US20060100431A1, “Biologically active compounds” (Amura Therapeutics Limited, priority 2002, published 2006)
Some entries share one result that the patent states for a list of compounds. Some compounds share one range, which may span the group rather than tell each member.

Target: T1, human cathepsin K (Homo sapiens, UniProt P43235)
T1 construct: Dr. Boris Turk (Josef Stefan Institute, Ljubljana, Slovenia)
T1 sequence (P43235 115-329): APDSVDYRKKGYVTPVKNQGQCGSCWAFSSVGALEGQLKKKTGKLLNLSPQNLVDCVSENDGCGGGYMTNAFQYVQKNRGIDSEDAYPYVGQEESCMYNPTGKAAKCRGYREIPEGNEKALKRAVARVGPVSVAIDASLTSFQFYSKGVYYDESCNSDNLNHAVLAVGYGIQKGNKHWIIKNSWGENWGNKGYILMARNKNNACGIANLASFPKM
Assay: Cathepsin K peptidase activity assay (Ki)
Assay type: biochemical
In short: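 Buffer: 10 mM bis-tris-propane pH 6.5, 1 mM EDTA, 5 mM 2-mercaptoethanol, 1 mM CaCl2; DMSO <1%. Ki assumed reversible, pure-competitive, from Ki^app=Ki(1+[So]/KM^app) by non-linear regression.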

SMILES | Ki, inhibitors of cathepsin K [nM]
CC(C)C[C@H](NC(=O)c1ccc(N(C)C)cc1)C(=O)N1CC[C@@H]2[C@H]1C(=O)CN2C(=O)c1cccs1 [Example 95, (3aR,6aS)-4-Dimethylamino-N-{(1S)-3-methyl-1-[6-oxo-4-(thiophene-2-carbonyl)-hexahydro-pyrrolo[3,2-b]pyrrole-1-carbonyl]-butyl}-benzamide] | 1 to 5000
CC(C)C[C@H](NC(=O)c1ccc(N(C)C)cc1)C(=O)N1CC[C@@H]2[C@H]1C(=O)CN2C(=O)c1ccc2c(c1)OCO2 [Example 77, (3aR,6aS)-N-{(1S)-1-[4-(Benzo[1,3]dioxole-5-carbonyl)-6-oxo-hexahydro-pyrrolo[3,2-b]pyrrole-1-carbonyl]-3-methyl-butyl}-4-dimethylamino-benzamide] | 1 to 5000
CC(C)C[C@H](NC(=O)c1ccc(N(C)C)cc1)C(=O)N1CC[C@@H]2[C@H]1C(=O)CN2C(=O)CCS(=O)(=O)c1ccccc1 [Example 143, (3aR,6aS)-N-{(1S)-1-[4-(3-Benzenesulfonyl-propionyl)-6-oxo-hexahydro-pyrrolo[3,2-b]pyrrole-1-carbonyl]-3-methyl-butyl}-4-dimethylamino-benzamide] | 1 to 5000
CC(C)C[C@H](NC(=O)c1ccc(N(C)C)cc1)C(=O)N1CC[C@@H]2[C@H]1C(=O)CN2C(=O)c1ccccc1S(C)(=O)=O [Example 42, (3aR,6aS)-4-Dimethylamino-N-{(1S)-1-[4-(2-methanesulfonyl-benzoyl)-6-oxo-hexahydro-pyrrolo[3,2-b]pyrrole-1-carbonyl]-3-methyl-butyl}-benzamide] | 1 to 5000
CC(C)C[C@H](NC(=O)c1ccc(N(C)C)cc1)C(=O)N1CC[C@@H]2[C@H]1C(=O)CN2C(=O)N1CCCC1 [Example 235, (3aR,6aS)-4-Dimethylamino-N-{(1S)-3-methyl-1-[6-oxo-4-(pyrrolidine-1-carbonyl)-hexahydro-pyrrolo[3,2-b]pyrrole-1-carbonyl]-butyl}-benzamide] | 1 to 5000
CC(C)C[C@H](NC(=O)c1ccc(N(C)C)cc1)C(=O)N1CC[C@@H]2[C@H]1C(=O)CN2C(=O)[C@@H](CC(C)C)NC(=O)OCc1ccccc1 [Example 109, (3aS,6aR)-((1R)-1-{4[(2S)-2-(4-Dimethylamino-benzoylamino)-4-methyl-pentanoyl]-3-oxo-hexahydro-pyrrolo[3,2-b]pyrrole-1-carbonyl}-3-methyl-butyl)-carbamic acid benzyl ester] | 1 to 5000
